# Measured values reported in PubChem BioAssay (EPA / NIEHS).
# Protein sequences, listed by entry. Tags and fused reporters are not part of them. Lines headed by an entry give the natural chain unless they say otherwise; changes in a name come on top.
# UniProt P25445, whole entry, looked up: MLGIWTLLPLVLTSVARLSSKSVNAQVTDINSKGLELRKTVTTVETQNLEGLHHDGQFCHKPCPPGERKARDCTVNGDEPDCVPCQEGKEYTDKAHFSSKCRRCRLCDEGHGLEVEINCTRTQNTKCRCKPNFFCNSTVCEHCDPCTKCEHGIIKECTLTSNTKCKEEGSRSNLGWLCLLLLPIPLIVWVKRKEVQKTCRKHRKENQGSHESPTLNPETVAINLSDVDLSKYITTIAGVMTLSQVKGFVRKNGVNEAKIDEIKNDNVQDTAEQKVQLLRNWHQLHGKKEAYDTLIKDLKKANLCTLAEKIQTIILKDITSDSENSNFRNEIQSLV
# UniProt P37231: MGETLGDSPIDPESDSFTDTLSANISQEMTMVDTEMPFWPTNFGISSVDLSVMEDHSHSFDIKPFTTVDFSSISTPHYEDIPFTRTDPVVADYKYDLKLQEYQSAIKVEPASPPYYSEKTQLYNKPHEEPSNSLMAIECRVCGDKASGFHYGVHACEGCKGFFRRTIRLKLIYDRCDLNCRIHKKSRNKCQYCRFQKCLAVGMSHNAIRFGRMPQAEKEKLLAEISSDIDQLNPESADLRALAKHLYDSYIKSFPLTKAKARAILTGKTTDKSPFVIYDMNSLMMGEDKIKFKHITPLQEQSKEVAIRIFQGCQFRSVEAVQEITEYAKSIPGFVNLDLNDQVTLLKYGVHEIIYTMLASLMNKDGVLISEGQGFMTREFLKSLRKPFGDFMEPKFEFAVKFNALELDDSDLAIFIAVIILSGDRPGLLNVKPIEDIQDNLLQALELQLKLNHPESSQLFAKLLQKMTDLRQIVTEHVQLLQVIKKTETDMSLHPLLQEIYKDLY
# For part of these data: This list holds what a sample rich in hits left over. Results filed as inconclusive are left out. The entries are a selection whose mix differs from that of the whole data set. A structure can be active in one record and inactive in another. Active and inactive are the calls of the source. How the source made its calls, unless noted: active means hit-call score of the fitted dose curve at least 0.9, where 1 is the maximum; inactive means score below 0.9.
# Columns and labels:
# [1] = read-out: Cyclin Dependent Kinase Inhibitor 1A (CDKN1A), CDKN1A (gene 1026); assay: LTEA_HepaRG_CDKN1A: Life Technologies and Expression Analysis (LTEA) Assay for Cyclin Dependent Kinase Inhibitor 1A (CDKN1A) using HepaRG (AID 2283450); conditions: actives raise or lower the signal; mRNA level, 48 h
# How it was run: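 HepaRG, 48 h dosing, 8-pt half-log series from 100 uM top, 0.5% DMSO vehicle, duplicates. Readout: TaqMan qRT-PCR of CDKN1A transcript, housekeeping-normalized (ACTB, GAPDH, POLR2A). Up/down curve fit relative to DMSO.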
# [2] = read-out: Forkhead box O3 (FOXO3), FOXO3 (gene 2309); assay: LTEA_HepaRG_FOXO3: Life Technologies and Expression Analysis (LTEA) Assay for Forkhead box O3 (FOXO3) using HepaRG (AID 2283459); conditions: actives raise or lower the signal; mRNA level, 48 h
# How it was run: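 FOXO3 transcript measured by qRT-PCR (normalized to ACTB, GAPDH, POLR2A) after 48 h exposure of HepaRG cells in serum-free induction medium. Duplicates, eight half-log concentrations up to 100 uM, 0.5% DMSO; gain or loss fitted against DMSO.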
# [3] = read-out: adenosine kinase (ADK) gene, ADK (gene 132); assay: LTEA_HepaRG_ADK: Life Technologies and Expression Analysis (LTEA) Assay for adenosine kinase (ADK) gene using HepaRG (AID 2283471); conditions: actives raise or lower the signal; mRNA level, 48 h
# How it was run: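 HepaRG (human liver), 48 h chemical exposure, 8-pt half-log series, top 100 uM, 0.5% DMSO vehicle. Readout: ADK mRNA by qRT-PCR vs housekeeping genes; bidirectional curve fit relative to DMSO baseline.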
# [4] = CEETOX_H295R_PROG: CeeTox H295R High-throughput Steroidogenesis Assay for Progesterone (PROG) (AID 2283442); conditions: actives raise or lower the signal
# How it was run: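 Progesterone read-out: HPLC-MS/MS on MTBE extracts of conditioned medium after 48 h chemical exposure of forskolin-primed (10 uM, 48 h) H295R cells. Gain or loss of signal was fitted relative to DMSO baseline.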
# [5] = CEETOX_H295R_MTT_cell_viability: Viability Assessment in the CeeTox HT-H295R MTT Assay (AID 2283718);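 further: curve fitted both ways so AC50 may mark viability loss or gain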
# [6] = CEETOX_H295R_OHPROG: CeeTox H295R High-throughput Steroidogenesis Assay for OH-Progesterone (OHPROG) (AID 2283435); conditions: actives raise or lower the signal
# [7] = CCTE_Simmons_MITO_max_resp_rate: CCTE's HepG2 Seahorse XF Respirometric Screening Assay at Maximal Respiratory State [uncoupled], Simmons Lab (AID 2284002); conditions: actives raise or lower the signal
# How it was run: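 HepG2, Seahorse XF96, maximal OCR post-FCCP. Cpd 125 nM–100 uM final (7 conc), n=3 biological. Kinetic reads every 6 min (3 min mix/3 min measure) over 72 min; fit bidirectional vs DMSO.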
# [8] = CCTE_Shafer_MEA_acute_cross_correlation_HWHM: CCTE's Neural Acute Assay for Cross Correlation at Half Width at Half Maximum, Shafer Lab (AID 2284026);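 further: percent change per well from pre-dose baseline in spike cross-correlogram half width; hits are a decrease in cross-correlogram half width relative to DMSO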
# How it was run: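 Read-out: half width at half maximum of action-potential cross-correlogram, percent change versus pre-treatment baseline, fitted in loss direction against DMSO. Rat cortical cultures, DIV 13 or 15, dosed 0.03-40 uM, 40-min recordings at 37 C.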
# [9] = CCTE_Shafer_MEA_dev_per_burst_interspike_interval: CCTE's Neural Network Formation Assay for Burst Interspike Interval, Shafer Lab (AID 2284044);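 further: potency for a decrease of within-burst interspike interval below DMSO level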
# How it was run: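 Readout is the average time between spikes inside single-electrode bursts, taken as a well mean across bursting electrodes. Cortical neurons from rat developed networks on MEA plates under continuous 12-day exposure; recordings on days 5, 7, 9 and 12 were integrated by trapezoidal AUC.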
# [10] = read-out: Tumor necrosis factor receptor superfamily member 6 (Homo sapiens) (UniProt P25445); assay: LTEA_HepaRG_FAS: Life Technologies and Expression Analysis (LTEA) Assay for Fas cell surface death receptor (FAS) using HepaRG (AID 2283447); conditions: actives raise or lower the signal; mRNA level, 48 h
# How it was run: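 FAS transcript level was measured by TaqMan qRT-PCR against three housekeeping genes after 48 h chemical exposure. Cells were HepaRG, 0.5% DMSO vehicle, with a top concentration of 100 uM and half-log dilutions over eight points, in duplicate.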
# [11] = target: Peroxisome proliferator-activated receptor gamma (Homo sapiens) (UniProt P37231); assay: OT_PPARg_PPARgSRC1_0480: Odyssey Thera (OT) 8-hour Protein-Complementation Assay for Peroxisome Proliferator-activated Receptor Gamma / SRC-1 Co-activator (AID 2283387; active means hit-call score of the fitted dose curve at least 0.9, where 1 is the maximum;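 further: nuclear to cytoplasmic split Venus YFP fluorescence ratio reporting PPARg SRC-1 interaction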)
# How it was run: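 Read-out: 488 nm N/C fluorescence ratio from complemented Venus YFP fragments, ≥350 cells per image, gain-of-signal fitted against DMSO baseline. Fusions of PPARg/SRC-1 with IFP1/IFP2 expressed transiently in HEK293T; compounds applied 8 h.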
# [12] = read-out: CYP3A5 (gene 1577); assay: LTEA_HepaRG_CYP3A5: Life Technologies and Expression Analysis (LTEA) Assay for CYP3A5 using HepaRG (AID 2283493); conditions: actives raise or lower the signal; mRNA level, 48 h
# How it was run: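 Readout was CYP3A5 mRNA by qRT-PCR. HepaRG cultures were exposed for 48 h in serum-free induction medium to chemicals at up to 100 uM, and responses were fitted in both directions relative to DMSO vehicle.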
# [13] = read-out: Lipoprotein lipase (LPL), LPL (gene 4023); assay: LTEA_HepaRG_LPL: Life Technologies and Expression Analysis (LTEA) Assay for Lipoprotein lipase (LPL) using HepaRG (AID 2283515); conditions: actives raise or lower the signal; mRNA level, 48 h
# How it was run: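 LPL transcript levels quantified by TaqMan qRT-PCR against three housekeeping genes after 48 h chemical treatment of HepaRG cells. Eight-point half-log series from 100 uM in 0.5% DMSO, tested in duplicate; bidirectional fitting versus vehicle.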
# [14] = read-out: sulfotransferase (SULT2A), SULT2A1 (gene 6822); assay: CLD_SULT2A_24hr: CellzDirect (CLD) Gene Expression Assay for sulfotransferase (SULT2A) at 24 hours (AID 2283694; active means hit-call score of the fitted dose curve at least 0.9, where 1 is the maximum)
# How it was run: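 mRNA is measured by qNPA: probe hybridisation, S1 nuclease digestion, chemiluminescence, in lysates from human primary hepatocytes harvested 24 h after daily dosing. Vehicle was 0.2% DMSO. Phase-contrast microscopy flagged cytotoxicity (yes/no).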
# [15] = read-out: xenobiotic metabolism (CYP1A1), CYP1A1 (gene 1543); assay: CLD_CYP1A1_48hr: CellzDirect (CLD) Gene Expression Assay for xenobiotic metabolism (CYP1A1) at 48 hours (AID 2283705; active means hit-call score of the fitted dose curve at least 0.9, where 1 is the maximum)
# How it was run: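 CYP1A1 transcript measured by quantitative nuclease protection (chemiluminescent) 48 h after two daily treatments of human hepatocyte cultures, versus 0.2% DMSO. Morphology-based cytotoxicity flags accompany data; two donor preparations used.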
structure (smiles),measurement,setting,value
Oc1ccc(Cl)cc1Cl,outcome,[1],inactive
same,outcome,[2],inactive
same,outcome,[3],inactive
Nc1ccc(N)cc1,outcome,[4],inactive
same,AC50,[5],active: 79.6 µM
CCOP(=O)(NC(C)C)Oc1ccc(SC)c(C)c1 (stereo not given),outcome,[6],inactive
same,AC50,[7],active: 39.2 µM
same,AC50,[8],active: 36.1 µM
same,AC50,[9],active: 22.8 µM
Cc1cc(C)cc(C)c1,outcome,[10],inactive
Oc1ccccc1-c1ccccc1,outcome,[11],inactive
same,outcome,[12],inactive
same,outcome,[13],inactive
same,outcome,[14],inactive
same,AC50,[15],active: 20 µM
